In paper PMC11031989:
Results are given in words; binding and its absence hold for the method and conditions named. Binding seen in cells or lysates may run through a third protein. Some binding calls cover weakened binding; strength is not graded here.

Chains of the proteins cited; added tags and fusions are not shown. Lines headed by an entry give the natural chain unless they say otherwise; changes in a name come on top. A line that says so, or that is headed by a name, gives the form on record, which may keep a tag or linker.
HA-tagged 5-HT7R K327S (P32304, form named): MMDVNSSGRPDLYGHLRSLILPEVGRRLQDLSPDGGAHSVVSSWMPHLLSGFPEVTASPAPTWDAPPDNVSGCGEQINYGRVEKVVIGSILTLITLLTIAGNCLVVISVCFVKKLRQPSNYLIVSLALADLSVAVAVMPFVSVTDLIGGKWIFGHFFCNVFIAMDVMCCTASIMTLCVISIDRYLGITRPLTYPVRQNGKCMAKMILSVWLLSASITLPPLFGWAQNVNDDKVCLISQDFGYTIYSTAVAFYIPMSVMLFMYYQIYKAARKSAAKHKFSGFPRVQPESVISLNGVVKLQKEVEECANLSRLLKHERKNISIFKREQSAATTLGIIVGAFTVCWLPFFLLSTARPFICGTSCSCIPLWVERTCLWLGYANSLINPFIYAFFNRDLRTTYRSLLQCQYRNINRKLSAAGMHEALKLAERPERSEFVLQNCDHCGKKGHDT
HA-tagged 5-HT7R E325G (P32304, form named): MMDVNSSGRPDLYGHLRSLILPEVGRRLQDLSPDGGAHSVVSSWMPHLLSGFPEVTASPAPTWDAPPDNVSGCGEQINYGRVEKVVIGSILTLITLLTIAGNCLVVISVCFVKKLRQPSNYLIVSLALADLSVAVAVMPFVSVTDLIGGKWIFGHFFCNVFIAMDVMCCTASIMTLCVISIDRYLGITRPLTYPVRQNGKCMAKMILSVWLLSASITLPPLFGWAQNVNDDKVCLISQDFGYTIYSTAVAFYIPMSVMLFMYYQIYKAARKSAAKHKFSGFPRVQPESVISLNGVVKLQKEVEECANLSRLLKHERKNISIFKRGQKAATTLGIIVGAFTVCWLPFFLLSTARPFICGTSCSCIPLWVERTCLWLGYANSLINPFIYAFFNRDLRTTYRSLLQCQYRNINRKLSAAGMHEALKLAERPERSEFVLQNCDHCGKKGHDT
HA-tagged 5-HT7R E325G;K327S (P32304, form named): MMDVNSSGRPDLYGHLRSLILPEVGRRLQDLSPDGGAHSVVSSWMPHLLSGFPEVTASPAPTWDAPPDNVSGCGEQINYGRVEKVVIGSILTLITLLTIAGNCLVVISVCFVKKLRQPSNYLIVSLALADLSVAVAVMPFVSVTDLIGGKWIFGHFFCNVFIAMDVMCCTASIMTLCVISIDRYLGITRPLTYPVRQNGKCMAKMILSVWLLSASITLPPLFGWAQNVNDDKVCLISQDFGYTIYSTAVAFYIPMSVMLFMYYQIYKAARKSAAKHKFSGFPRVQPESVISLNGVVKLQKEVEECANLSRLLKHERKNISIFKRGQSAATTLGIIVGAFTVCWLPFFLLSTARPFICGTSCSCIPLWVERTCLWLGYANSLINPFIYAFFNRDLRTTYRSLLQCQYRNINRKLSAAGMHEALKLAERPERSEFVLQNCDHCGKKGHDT

Assays:
[1] = target: mCherry-tagged CDK5 (cyclin-dependent kinase 5) (UniProt Q00535); experiment: co-IP; N1E-115 cells co-transfected with mCherry-tagged CDK5 and HA-tagged 5-HT7R constructs; IP with anti-mCherry antibody, Western blot with anti-HA antibody; ratio of co-precipitated receptor normalized to the WT sample; also done after knock-down of Gαs by shRNA (Additional file 5)
[2] = target: mCherry-tagged 5-HT7R (serotonin receptor 7), wild type (UniProt P32304); experiment: co-IP; N1E-115 cells co-transfected with mCherry-tagged 5-HT7R and eCFP-tagged CDK5, lysed in RIPA buffer; IP overnight with anti-mCherry antibody (goat IgG as control), protein A sepharose; Western blot with anti-CFP antibody
[3] = target: mCherry-tagged 5-HT7R (serotonin receptor 7), wild type (UniProt P32304); experiment: condition: only cells expressing only one type of protein mixed prior to lysis ("mix" samples); co-IP; control 'mix': N1E-115 cells expressing only mCherry-5-HT7R or only eCFP-tagged CDK5 mixed prior to lysis; IP with anti-mCherry antibody, Western blot with anti-CFP antibody

Row | Substance | binding [1] | binding [2] | binding [3]
1 | HA-tagged 5-HT7R ΔR395 (from UniProt P32304 1-394) (domain or fragment) | binds | – | –
2 | HA-tagged 5-HT7R K327S (from UniProt P32304 1-448) (receptor) | binds | – | –
3 | eCFP-tagged CDK5 (cyclin-dependent kinase 5) (from UniProt Q00535 1-292) (enzyme) | – | binds | no binding
4 | HA-tagged 5-HT7R E325G (from UniProt P32304 1-448) (receptor) | binds | – | –
5 | HA-tagged 5-HT7R E325G;K327S (from UniProt P32304 1-448) (receptor) | binds | – | –
